Results from PMC3589825, “The AFF4 scaffold binds human P-TEFb adjacent to HIV Tat” (eLife, 2013).
These are yes or no findings as the source states them, for the method shown. For part of these data: Binding seen in cells or lysates may run through a third protein. Some results given as binding are weak or reduced against the parent protein; the word gives no strength. For part of these data: Tags and fused reporters may be left off the sequences shown.

Amino acid sequences for entries named in this document (tags omitted). A change or cut given only in a name is not applied to a line headed by its entry.
UniProt P50750: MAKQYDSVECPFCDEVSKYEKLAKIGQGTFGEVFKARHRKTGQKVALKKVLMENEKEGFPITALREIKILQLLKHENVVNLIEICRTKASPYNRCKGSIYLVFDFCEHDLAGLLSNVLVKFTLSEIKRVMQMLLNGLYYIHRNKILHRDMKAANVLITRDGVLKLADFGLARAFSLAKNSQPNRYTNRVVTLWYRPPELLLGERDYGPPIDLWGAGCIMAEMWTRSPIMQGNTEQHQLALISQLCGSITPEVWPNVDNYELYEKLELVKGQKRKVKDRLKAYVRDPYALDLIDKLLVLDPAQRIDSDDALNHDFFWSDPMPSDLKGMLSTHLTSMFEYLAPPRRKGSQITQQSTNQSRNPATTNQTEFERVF
UniProt P42568: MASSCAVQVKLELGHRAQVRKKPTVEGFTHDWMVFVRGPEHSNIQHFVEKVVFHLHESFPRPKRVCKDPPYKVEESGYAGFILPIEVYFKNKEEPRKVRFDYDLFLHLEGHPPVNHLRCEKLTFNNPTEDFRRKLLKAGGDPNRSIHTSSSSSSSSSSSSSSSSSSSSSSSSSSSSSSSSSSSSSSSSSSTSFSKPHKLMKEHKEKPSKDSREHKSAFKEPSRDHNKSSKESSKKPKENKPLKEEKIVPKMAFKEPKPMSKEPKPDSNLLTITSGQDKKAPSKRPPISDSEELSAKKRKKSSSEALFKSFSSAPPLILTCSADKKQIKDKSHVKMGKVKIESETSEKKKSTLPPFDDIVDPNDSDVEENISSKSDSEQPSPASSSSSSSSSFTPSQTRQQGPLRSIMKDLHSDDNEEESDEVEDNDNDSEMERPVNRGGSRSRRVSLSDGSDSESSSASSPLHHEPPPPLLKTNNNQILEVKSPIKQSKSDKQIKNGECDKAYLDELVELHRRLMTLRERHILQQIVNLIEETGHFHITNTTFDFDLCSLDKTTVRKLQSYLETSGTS
UniProt P04608: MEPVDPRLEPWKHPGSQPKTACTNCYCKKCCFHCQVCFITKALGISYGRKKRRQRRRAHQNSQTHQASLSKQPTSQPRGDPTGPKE

Tests used:
[1] = biological target: T1, AFF4 Lys63/Asp64 di-alanine mutant with C-terminal 3× FLAG tag (human) (UniProt Q9UHB7); assay: co-IP; HeLa cells transfected with AFF4 variants with C-terminal 3× FLAG; nuclear extract, anti-FLAG agarose beads 2 hr at 4°C, glycine elution, Western blot; without or with a stably integrated, overexpressed gene for Tat
T1 sequence: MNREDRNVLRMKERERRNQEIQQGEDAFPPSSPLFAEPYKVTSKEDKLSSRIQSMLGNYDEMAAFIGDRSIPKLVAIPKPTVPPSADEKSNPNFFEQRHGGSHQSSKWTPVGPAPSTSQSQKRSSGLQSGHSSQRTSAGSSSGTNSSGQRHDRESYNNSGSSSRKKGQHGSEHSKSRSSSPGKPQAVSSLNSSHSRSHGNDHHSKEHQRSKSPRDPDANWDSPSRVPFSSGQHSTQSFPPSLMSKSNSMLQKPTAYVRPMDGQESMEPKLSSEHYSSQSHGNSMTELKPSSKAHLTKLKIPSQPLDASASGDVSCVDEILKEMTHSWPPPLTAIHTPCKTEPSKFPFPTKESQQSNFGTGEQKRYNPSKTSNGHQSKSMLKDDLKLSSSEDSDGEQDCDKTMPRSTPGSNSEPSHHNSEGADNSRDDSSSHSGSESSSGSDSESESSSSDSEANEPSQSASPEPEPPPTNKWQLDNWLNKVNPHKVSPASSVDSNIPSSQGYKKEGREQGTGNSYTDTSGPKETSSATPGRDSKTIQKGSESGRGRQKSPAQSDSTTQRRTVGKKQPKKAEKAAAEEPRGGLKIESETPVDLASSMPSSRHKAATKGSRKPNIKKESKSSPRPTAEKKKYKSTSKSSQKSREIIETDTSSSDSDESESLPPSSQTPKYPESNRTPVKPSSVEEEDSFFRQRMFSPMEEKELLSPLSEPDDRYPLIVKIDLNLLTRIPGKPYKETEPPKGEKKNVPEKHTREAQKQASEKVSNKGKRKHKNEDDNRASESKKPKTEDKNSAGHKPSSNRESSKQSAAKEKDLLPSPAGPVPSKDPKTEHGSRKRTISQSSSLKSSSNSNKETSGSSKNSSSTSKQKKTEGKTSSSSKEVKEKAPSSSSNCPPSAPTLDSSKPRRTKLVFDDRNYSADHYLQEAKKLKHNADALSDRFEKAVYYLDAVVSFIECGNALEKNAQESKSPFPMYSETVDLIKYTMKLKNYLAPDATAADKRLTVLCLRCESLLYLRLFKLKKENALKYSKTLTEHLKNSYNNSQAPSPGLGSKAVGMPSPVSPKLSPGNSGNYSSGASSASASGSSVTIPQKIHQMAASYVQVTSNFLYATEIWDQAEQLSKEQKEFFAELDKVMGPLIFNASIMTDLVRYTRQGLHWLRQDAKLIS

[2] = biological target: T2, AFF4 Phe35 alanine mutant with C-terminal 3× FLAG tag (human) (UniProt Q9UHB7); assay: as above
T2 sequence: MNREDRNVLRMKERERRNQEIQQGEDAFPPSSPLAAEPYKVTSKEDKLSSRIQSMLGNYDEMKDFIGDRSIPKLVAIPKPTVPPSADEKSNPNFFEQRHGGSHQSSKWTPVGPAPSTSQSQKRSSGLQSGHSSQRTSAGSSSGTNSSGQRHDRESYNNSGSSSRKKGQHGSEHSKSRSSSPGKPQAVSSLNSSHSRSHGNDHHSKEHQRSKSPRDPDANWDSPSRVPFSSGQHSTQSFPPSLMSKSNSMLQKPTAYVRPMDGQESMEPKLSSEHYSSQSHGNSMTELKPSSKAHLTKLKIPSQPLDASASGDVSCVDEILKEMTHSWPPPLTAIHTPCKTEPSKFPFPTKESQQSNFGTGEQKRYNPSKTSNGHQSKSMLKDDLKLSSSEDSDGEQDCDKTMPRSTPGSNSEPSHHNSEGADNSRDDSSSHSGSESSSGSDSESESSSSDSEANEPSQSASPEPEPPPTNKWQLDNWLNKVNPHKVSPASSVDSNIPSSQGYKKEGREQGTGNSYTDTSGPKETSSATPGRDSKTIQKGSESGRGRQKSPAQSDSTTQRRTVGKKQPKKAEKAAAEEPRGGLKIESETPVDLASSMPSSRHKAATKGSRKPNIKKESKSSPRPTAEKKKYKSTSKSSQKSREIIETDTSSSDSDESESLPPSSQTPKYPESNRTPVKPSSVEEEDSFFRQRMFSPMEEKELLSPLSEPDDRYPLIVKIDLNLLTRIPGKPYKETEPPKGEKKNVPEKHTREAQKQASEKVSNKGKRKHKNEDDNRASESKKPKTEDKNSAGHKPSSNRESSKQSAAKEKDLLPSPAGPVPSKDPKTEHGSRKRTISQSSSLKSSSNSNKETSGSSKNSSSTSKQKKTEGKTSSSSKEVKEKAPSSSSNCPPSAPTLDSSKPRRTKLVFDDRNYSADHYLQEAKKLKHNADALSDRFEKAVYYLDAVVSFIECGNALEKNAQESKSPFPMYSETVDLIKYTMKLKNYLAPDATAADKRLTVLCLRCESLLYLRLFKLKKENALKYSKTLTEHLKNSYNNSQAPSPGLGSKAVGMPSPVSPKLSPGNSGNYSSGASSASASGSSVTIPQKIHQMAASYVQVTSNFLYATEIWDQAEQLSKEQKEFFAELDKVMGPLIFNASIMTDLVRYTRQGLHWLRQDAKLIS

[3] = biological target: T3, AFF4 Tyr59/Asp60 di-alanine mutant with C-terminal 3× FLAG tag (human) (UniProt Q9UHB7); assay: as above
T3 sequence: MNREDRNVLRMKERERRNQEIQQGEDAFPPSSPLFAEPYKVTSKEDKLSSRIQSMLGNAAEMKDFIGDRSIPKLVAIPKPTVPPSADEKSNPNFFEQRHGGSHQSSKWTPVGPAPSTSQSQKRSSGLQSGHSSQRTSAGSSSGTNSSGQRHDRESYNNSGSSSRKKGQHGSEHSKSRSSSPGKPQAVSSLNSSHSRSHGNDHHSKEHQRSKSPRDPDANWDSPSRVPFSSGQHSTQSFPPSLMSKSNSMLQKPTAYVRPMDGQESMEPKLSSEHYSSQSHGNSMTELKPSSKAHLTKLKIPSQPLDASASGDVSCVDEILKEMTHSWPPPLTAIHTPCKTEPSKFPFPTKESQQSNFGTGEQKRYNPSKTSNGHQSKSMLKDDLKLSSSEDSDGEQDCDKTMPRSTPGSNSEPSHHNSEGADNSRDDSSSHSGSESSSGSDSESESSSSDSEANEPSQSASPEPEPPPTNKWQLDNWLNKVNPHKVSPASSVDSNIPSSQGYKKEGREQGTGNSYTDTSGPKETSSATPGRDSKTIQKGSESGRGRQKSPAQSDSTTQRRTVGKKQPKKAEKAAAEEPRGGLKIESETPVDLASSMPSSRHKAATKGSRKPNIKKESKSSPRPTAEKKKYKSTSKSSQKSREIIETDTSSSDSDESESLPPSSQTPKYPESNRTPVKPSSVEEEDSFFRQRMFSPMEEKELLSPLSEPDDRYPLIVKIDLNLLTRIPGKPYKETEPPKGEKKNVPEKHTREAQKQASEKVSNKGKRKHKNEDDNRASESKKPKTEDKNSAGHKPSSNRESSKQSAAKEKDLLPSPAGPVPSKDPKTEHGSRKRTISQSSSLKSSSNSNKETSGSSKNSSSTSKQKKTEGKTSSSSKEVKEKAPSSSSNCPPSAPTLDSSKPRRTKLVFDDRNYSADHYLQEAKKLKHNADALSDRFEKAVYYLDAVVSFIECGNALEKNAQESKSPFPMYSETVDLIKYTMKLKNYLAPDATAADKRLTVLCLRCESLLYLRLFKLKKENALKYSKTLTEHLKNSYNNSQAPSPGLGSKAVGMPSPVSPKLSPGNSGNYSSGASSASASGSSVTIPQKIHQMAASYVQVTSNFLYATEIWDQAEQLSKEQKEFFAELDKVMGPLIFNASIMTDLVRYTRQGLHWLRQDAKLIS

[4] = biological target: T4, AFF4 wild type with C-terminal 3× FLAG tag (human) (UniProt Q9UHB7); assay: as above
T4 sequence: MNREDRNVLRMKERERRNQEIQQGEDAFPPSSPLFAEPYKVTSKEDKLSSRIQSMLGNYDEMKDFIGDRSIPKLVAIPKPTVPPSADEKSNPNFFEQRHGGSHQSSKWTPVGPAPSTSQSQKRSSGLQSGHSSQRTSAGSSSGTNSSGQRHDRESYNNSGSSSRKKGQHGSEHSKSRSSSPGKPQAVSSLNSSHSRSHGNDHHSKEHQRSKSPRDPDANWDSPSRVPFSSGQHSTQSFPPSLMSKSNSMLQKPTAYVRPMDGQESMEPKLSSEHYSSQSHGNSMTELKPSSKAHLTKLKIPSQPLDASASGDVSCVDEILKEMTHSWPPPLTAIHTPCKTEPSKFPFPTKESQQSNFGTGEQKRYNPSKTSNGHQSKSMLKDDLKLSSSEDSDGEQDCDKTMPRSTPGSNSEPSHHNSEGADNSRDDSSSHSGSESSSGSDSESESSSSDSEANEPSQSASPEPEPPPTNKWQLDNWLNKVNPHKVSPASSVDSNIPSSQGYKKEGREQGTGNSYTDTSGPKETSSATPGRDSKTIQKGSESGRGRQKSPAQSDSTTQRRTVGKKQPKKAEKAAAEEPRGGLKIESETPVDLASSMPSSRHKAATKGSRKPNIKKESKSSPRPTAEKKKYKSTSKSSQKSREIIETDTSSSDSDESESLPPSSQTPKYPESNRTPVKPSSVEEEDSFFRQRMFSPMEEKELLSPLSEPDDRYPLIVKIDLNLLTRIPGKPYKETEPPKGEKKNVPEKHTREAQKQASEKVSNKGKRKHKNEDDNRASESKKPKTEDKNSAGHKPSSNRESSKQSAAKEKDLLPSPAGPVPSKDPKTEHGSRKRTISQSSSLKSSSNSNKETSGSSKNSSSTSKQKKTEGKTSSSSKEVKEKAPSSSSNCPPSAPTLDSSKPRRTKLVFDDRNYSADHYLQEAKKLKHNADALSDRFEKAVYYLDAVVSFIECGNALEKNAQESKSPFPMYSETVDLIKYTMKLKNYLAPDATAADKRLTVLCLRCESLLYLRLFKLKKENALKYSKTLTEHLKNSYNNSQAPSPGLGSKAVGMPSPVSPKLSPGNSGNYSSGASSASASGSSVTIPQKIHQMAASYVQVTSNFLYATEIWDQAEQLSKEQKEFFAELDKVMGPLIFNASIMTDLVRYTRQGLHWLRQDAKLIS

[5] = biological target: P-TEFb (CDK9 1–330 / cyclin T1 1–264) (human) (UniProt P50750); assay: co-purification (His-Trap, then ion exchange chromatography); insect cells coinfected with His-CDK9, CycT1 and Tat viruses; His-Trap, TEV digest, Source S column in 20 mM Na-HEPES pH 7.3, 10% glycerol, 1 mM DTT with NaCl gradient

Measured: binding

AF9, endogenous in HeLa cells (from UniProt P42568 1-568)
not listed: [5]
binds: all other assays above

HIV-1 Tat (1–86) (from UniProt P04608 1-86)
binds: [5]

B1: ENL, endogenous in HeLa cells (protein, UniProt Q03111 1-559)
chain: MDNQCTVQVRLELGHRAQLRKKPTTEGFTHDWMVFVRGPEQCDIQHFVEKVVFWLHDSFPKPRRVCKEPPYKVEESGYAGFIMPIEVHFKNKEEPRKVCFTYDLFLNLEGNPPVNHLRCEKLTFNNPTTEFRYKLLRAGGVMVMPEGADTVSRPSPDYPMLPTIPLSAFSDPKKTKPSHGSKDANKESSKTSKPHKVTKEHRERPRKDSESKSSSKELEREQAKSSKDTSRKLGEGRLPKEEKAPPPKAAFKEPKMALKETKLESTSPKGGPPPPPPPPPRASSKRPATADSPKPSAKKQKKSSSKGSRSAPGTSPRTSSSSSFSDKKPAKDKSSTRGEKVKAESEPREAKKALEVEESNSEDEASFKSESAQSSPSNSSSSSDSSSDSDFEPSQNHSQGPLRSMVEDLQSEESDEDDSSSGEEAAGKTNPGRDSRLSFSDSESDNSADSSLPSREPPPPQKPPPPNSKVSGRRSPESCSKPEKILKKGTYDKAYTDELVELHRRLMALRERNVLQQIVNLIEETGHFNVTNTTFDFDLFSLDETTVRKLQSCLEAVAT
not listed: [5]
binds: all other assays above
